For assay [1], the target named is T1, mCherry-labeled Keratin 14 (K14), P02533.
T1 chain: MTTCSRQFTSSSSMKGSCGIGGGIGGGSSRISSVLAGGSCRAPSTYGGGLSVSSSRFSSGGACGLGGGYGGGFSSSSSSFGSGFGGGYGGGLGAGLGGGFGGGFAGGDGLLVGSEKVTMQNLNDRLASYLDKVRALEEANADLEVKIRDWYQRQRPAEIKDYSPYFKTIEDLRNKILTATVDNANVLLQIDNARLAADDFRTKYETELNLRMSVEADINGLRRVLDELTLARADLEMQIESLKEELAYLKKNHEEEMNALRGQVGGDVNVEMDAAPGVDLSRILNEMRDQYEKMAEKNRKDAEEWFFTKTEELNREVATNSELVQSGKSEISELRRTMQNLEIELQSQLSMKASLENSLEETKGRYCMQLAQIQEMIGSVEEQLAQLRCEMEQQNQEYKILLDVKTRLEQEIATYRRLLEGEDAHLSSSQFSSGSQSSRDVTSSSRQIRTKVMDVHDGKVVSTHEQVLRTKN
The assay is described as follows: co-IP; IP with anti-mCherry antibody from lysates of UM-UC5 and UM-UC14 cells expressing K14-mCherry, immunoblot; control cells lacking K14-mCherry; lysates also treated with TCEP (interaction reduced). As to conditions: remark: other sources report otherwise. Background: Immunoblotting shows a protein as a band on a membrane.

The target in assay [2] is mCherry-labeled Keratin 14 (K14) (UniProt P02533). Described as above.

Results are given in words; binding and its absence hold for the method and conditions named. Binding seen in cells or lysates may run through a third protein. Some entries that bind do so weakly or less than the wild type.

B1: FAM83H, Q6ZRV2 1-1179 (protein)
chain: MARRSQSSSQGDNPLAPGYLPPHYKEYYRLAVDALAEGGSEAYSRFLATEGAPDFLCPEELEHVSRHLRPPQYVTREPPEGSLLDVDMDGSSGTYWPVNSDQAVPELDLGWPLTFGFQGTEVTTLVQPPPPDSPSIKDEARRMIRSAQQVVAVVMDMFTDVDLLSEVLEAAARRVPVYILLDEMNAQHFLDMADKCRVNLQHVDFLRVRTVAGPTYYCRTGKSFKGHVKEKFLLVDCAVVMSGSYSFMWSFEKIHRSLAHVFQGELVSSFDEEFRILFAQSEPLVPSAAALARMDAYALAPYAGAGPLVGVPGVGAPTPFSFPKRAHLLFPPPREEGLGFPSFLDPDRHFLSAFRREEPPRMPGGALEPHAGLRPLSRRLEAEAGPAGELAGARGFFQARHLEMDAFKRHSFATEGAGAVENFAAARQVSRQTFLSHGDDFRFQTSHFHRDQLYQQQYQWDPQLTPARPQGLFEKLRGGRAGFADPDDFTLGAGPRFPELGPDGHQRLDYVPSSASREVRHGSDPAFAPGPRGLEPSGAPRPNLTQRFPCQAAARPGPDPAPEAEPERRGGPEGRAGLRRWRLASYLSGCHGEDGGDDGLPAPMEAEAYEDDVLAPGGRAPAGDLLPSAFRVPAAFPTKVPVPGPGSGGNGPEREGPEEPGLAKQDSFRSRLNPLVQRSSRLRSSLIFSTSQAEGAAGAAAATEKVQLLHKEQTVSETLGPGGEAVRSAASTKVAELLEKYKGPARDPGGGAGAITVASHSKAVVSQAWREEVAAPGAVGGERRSLESCLLDLRDSFAQQLHQEAERQPGAASLTAAQLLDTLGRSGSDRLPSRFLSAQSHSTSPQGLDSPLPLEGSGAHQVLHNESKGSPTSAYPERKGSPTPGFSTRRGSPTTGFIEQKGSPTSAYPERRGSPVPPVPERRSSPVPPVPERRGSLTLTISGESPKAGPAEEGPSGPMEVLRKGSLRLRQLLSPKGERRMEDEGGFPVPQENGQPESPRRLSLGQGDSTEAATEERGPRARLSSATANALYSSNLRDDTKAILEQISAHGQKHRAVPAPSPGPTHNSPELGRPPAAGVLAPDMSDKDKCSAIFRSDSLGTQGRLSRTLPASAEERDRLLRRMESMRKEKRVYSRFEVFCKKEEASSPGAGEGPAEEGTRDSKVGKFVPKILGTFKSKK
For B1, the binding entry in assay [1] was “no binding”.

B2: Tripartite Motif-containing protein 29 (TRIM29) (protein, UniProt Q14134 1-588)
chain: MEAADASRSNGSSPEARDARSPSGPSGSLENGTKADGKDAKTTNGHGGEAAEGKSLGSALKPGEGRSALFAGNEWRRPIIQFVESGDDKNSNYFSMDSMEGKRSPYAGLQLGAAKKPPVTFAEKGELRKSIFSESRKPTVSIMEPGETRRNSYPRADTGLFSRSKSGSEEVLCDSCIGNKQKAVKSCLVCQASFCELHLKPHLEGAAFRDHQLLEPIRDFEARKCPVHGKTMELFCQTDQTCICYLCMFQEHKNHSTVTVEEAKAEKETELSLQKEQLQLKIIEIEDEAEKWQKEKDRIKSFTTNEKAILEQNFRDLVRDLEKQKEEVRAALEQREQDAVDQVKVIMDALDERAKVLHEDKQTREQLHSISDSVLFLQEFGALMSNYSLPPPLPTYHVLLEGEGLGQSLGNFKDDLLNVCMRHVEKMCKADLSRNFIERNHMENGGDHRYVNNYTNSFGGEWSAPDTMKRYSMYLTPKGGVRTSYQPSSPGRFTKETTQKNFNNLYGTKGNYTSRVWEYSSSIQNSDNDLPVVQGSSSFSLKGYPSLMRSQSPKAQPQTWKSGKQTMLSHYRPFYVNKGNGIGSNEAP
Consider B2, for which the binding entry in assay [2] was “binds”.

(Values after PMC10760242.)
